Laboratory results: PubChem BioAssay AID2685 (National Center for Advancing Translational Sciences (NCATS), 2010)
The other results are listed elsewhere or left out. These are further read-outs of the screen, such as a control signal, another cell line or another target. No call is given for them. Compounds called inactive in the main read-out are mostly missing here. The note in brackets gives the kind of curve behind each potency; many fits are weak.

Experiment: qHTS Assay for Lipid Storage Modulators in Drosophila S3 Cells;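 as to cell number change: cells counted by Cell Tracker Red CMTPX staining in the red channel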
Details: BODIPY lipid droplet fluorescence, 18-24 h; for cell number change: measured here: cell count max response, cells fed with added oleic acid
Procedure, shortened: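 Laser-scanning cytometry quantifies lipid droplet accumulation (500–530 nm total intensity; droplet/cell object ratio) in oleic acid-fed (400 uM added) Drosophila S3 cells treated with a concentration series. 20 uM Triacsin C defined 100% inhibition.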

[1] = measured here: lipid fluorescence (Fed channel) AC50, cells fed with added oleic acid
[2] = measured here: cell number channel AC50, cells fed with added oleic acid

Row | Compound | cell number change [%] | AC50 [1] | AC50 [2]
1 | O=C(CSc1nnc(-c2ccccn2)n1-c1ccccc1)Nc1ccc2c(c1)OCO2 | -0.829 | 0.0651 µM [rising, full curve, poor fit] | –
2 | Cn1c(CNC(=O)C2CCCCC2)cc2cc(Cl)ccc21 | -22 | 4.61 µM [falling, single point] | –
3 | COc1ccc(NC(=O)c2cc3c([nH]c4ccccc43)c(C)n2)cc1 | 8.71 | 0.00461 µM [rising, full curve, poor fit] | 1.16 µM [rising, partial curve, poor fit]
4 | COc1ccccc1-c1cc(C(=O)N2CCN(c3ccc(F)cc3)CC2)no1 | 18 | 1.64 µM [rising, partial curve] | –
5 | Cc1cc2c(C)nc(N/N=C/c3ccccc3)nc2o1 | 1.75 | 20.6 µM [rising, single point] | 3.26 µM [rising, single point]
6 | O=C1N2CCSC2=NC1(NS(=O)(=O)c1ccccc1)C(F)(F)F (stereo not given) | -38.3 | 6.51 µM [falling, single point] | 0.92 µM [falling, full curve]
7 | COc1cc2c(cc1OC)CN(C(=O)C(CCSC)NS(=O)(=O)c1ccc(C)cc1)CC2 (stereo not given) | 37.8 | – | 29.1 µM [rising, single point]
8 | S=c1[nH]ncn1/N=C/c1cccc(Oc2ccccc2)c1 | -30.1 | 5.8 µM [rising, partial curve] | 20.6 µM [falling, single point]
9 | COCCN(C(=O)c1snc(C(N)=O)c1N)C(C(=O)NC1CCCCC1)c1ccc(OC)c(OC)c1 (stereo not given) | 34 | 0.326 µM [rising, full curve] | 29.1 µM [rising, single point]
10 | O=S(=O)(CCc1nc2ccccc2o1)c1ccc(Cl)cc1 | 13 | 14.6 µM [falling, partial curve] | –
11 | Nc1ccccc1Oc1ccc2ccccc2c1 | -11.9 | – | 6.51 µM [rising, single point]
12 | O=[N+]([O-])c1cc(C(F)(F)F)ccc1NCCCCNS(=O)(=O)c1ccc(Cl)cc1 | – | 14.6 µM [falling, partial curve, poor fit] | –
13 | Cc1ccc(SSc2cc(C)ccc2N)c(N)c1 | -93.3 | 29.1 µM [falling, partial curve, poor fit] | 32.6 µM [falling, partial curve, poor fit]
14 | CS(=O)(=O)N1CCC(C(=O)N2CCN(C(c3ccccc3)c3ccccc3)CC2)CC1 | – | 0.146 µM [falling, full curve, poor fit] | 0.13 µM [falling, full curve]
15 | O=C(Nc1ccc(F)cc1)c1nc2c(nnn2Cc2cccc3ccccc23)c(=O)[nH]1 | 42.9 | 23.1 µM [rising, single point] | 23.1 µM [rising, single point]
16 | COc1cccc2c(=O)n(CC(=O)Nc3cccc(F)c3)ccc12 | 78.2 | 2.31 µM [rising, full curve] | 2.31 µM [rising, full curve]
17 | S=c1nc(NCc2ccc3c(c2)OCO3)c2ccccc2[nH]1 | -5.19 | 20.6 µM [falling, single point] | –
18 | COC(=O)N1C(=O)[C@](c2ccc(OC)cc2)(C(C)C)N1C(=O)OC | -9.88 | 0.116 µM [falling, full curve, poor fit] | –
19 | CCCCCn1ccc(=O)c2c(C(F)(F)F)nccc21 | -17.3 | 29.1 µM [falling, single point] | –

Row | Compound | cell number change [%] | AC50 [1] | AC50 [2]
20 | CCOc1ccccc1OCC(=O)OCC(=O)NNC(=O)c1ccc([N+](=O)[O-])cc1 | -13.5 | 6.51 µM [falling, single point] | –
21 | COc1ccc(-c2cn(Cc3cccc(OC)c3)nn2)cc1 | -9.39 | – | –
22 | COCCNC(=O)C(c1ccc(C)o1)N(C(=O)C(=O)NC1CCCCC1)c1ccc(F)cc1 (stereo not given) | -3.32 | 0.184 µM [rising, full curve, poor fit] | –
23 | Cc1nc2ccc(C(=O)N3CCN(Cc4ccccc4)CC3)cc2[nH]1 | -19.2 | – | –
24 | O=C(O)CC(NS(=O)(=O)Cc1ccccc1)c1cccc([N+](=O)[O-])c1 (stereo not given) | 1.3 | 6.51 µM [rising, single point] | –
25 | O=C(NCc1ccco1)Nc1cccs1 | 21.8 | 0.206 µM [falling, single point] | –
26 | COC(=O)CNC(=O)CN1C(=O)N(c2cccc(Cl)c2)C(N(O)C(=O)Nc2cccc(Cl)c2)C1(C)C (stereo not given) | -20.4 | – | –
27 | CCCCC(=O)Nc1ccnc(-c2cccnc2)n1 | -43.4 | 32.6 µM [falling, partial curve] | 23.1 µM [falling, partial curve]
28 | COc1ccc(/C=N/Nc2ccc([N+](=O)[O-])cc2)cc1Cn1cc([N+](=O)[O-])cn1 | 35.3 | 0.461 µM [rising, full curve] | 0.184 µM [rising, full curve, poor fit]
29 | C/C(=N\Nc1ncc(Cl)cc1Cl)c1ccc(N2CCOCC2)cc1 | – | 11.6 µM [rising, partial curve, poor fit] | 0.92 µM [rising, full curve, poor fit]
30 | Cc1nn(C)c(NC(=O)c2ccc([N+](=O)[O-])cc2)c1Cl | -26.1 | – | –
31 | CSc1ccccc1C(=O)N1CCN(c2ccc(F)cc2)CC1 | 10.2 | 0.0058 µM [rising, full curve, poor fit] | –
32 | CCN(CC(=O)Nc1ccc(NC(C)=O)cc1)C(=O)CCCc1nc2ccccc2s1 | 1.19 | 2.91 µM [rising, partial curve, poor fit] | 0.00651 µM [rising, full curve, poor fit]
33 | Cc1ccccc1C(=O)NC1CCN(CC(=O)Nc2c(C)cccc2C)CC1 | -17.3 | 10.3 µM [falling, single point] | –
34 | CCC(=O)Nc1ccc(NC(=O)CSc2nc3c(c(=O)n(C)c(=O)n3C)n2CC)cc1 | 6.94 | – | –
35 | COc1ccc(C2=NOC(C(=O)NCc3cccs3)C2)cc1 (stereo not given) | 62.6 | 5.17 µM [rising, partial curve] | 29.1 µM [rising, single point]
36 | CCC(=O)c1cn(CC(=O)OC)c2ccccc12 | 26.7 | 6.51 µM [falling, single point] | –
37 | O=C(Nc1ccccc1NC(=O)c1ccco1)c1ccccc1 | – | 1.84 µM [falling, full curve] | –
38 | OCC(CO)(CO)NCC(O)CN1c2ccccc2Sc2ccccc21 (stereo not given) | 23.6 | – | 6.51 µM [rising, single point]

3 compounds out of the list, sorted by formula weight, low to high:
Row | Compound | cell number change [%] | AC50 [1] | AC50 [2]
38 | OCC(CO)(CO)NCC(O)CN1c2ccccc2Sc2ccccc21 (stereo not given) | 23.6 | – | 6.51 µM [rising, single point]
20 | CCOc1ccccc1OCC(=O)OCC(=O)NNC(=O)c1ccc([N+](=O)[O-])cc1 | -13.5 | 6.51 µM [falling, single point] | –
32 | CCN(CC(=O)Nc1ccc(NC(C)=O)cc1)C(=O)CCCc1nc2ccccc2s1 | 1.19 | 2.91 µM [rising, partial curve, poor fit] | 0.00651 µM [rising, full curve, poor fit]

Following part

Row | Compound | cell number change [%] | AC50 [1] | AC50 [2]
39 | CCOC(=O)c1ccc(S(=O)(=O)NCCN2CCOCC2)cc1 | 28.7 | 6.51 µM [rising, full curve] | –
40 | CC(Sc1nc2ccccc2s1)C(=O)Nc1ccc2c(c1)OCO2 (stereo not given) | 34.1 | 20.6 µM [rising, partial curve] | 9.2 µM [rising, partial curve]
41 | CC(C)C(C(=O)NCC1CCCO1)N(CC1CCCO1)C(=O)CNS(=O)(=O)c1ccccc1 (stereo not given) | 33.5 | – | 10.3 µM [rising, single point]
42 | O=C(Nc1cc2c3c(c1)CC(=O)N3CCC2)c1ccc(Cl)cc1 | – | – | 6.51 µM [rising, single point]
43 | Cc1nnsc1Sc1cccc(C(F)(F)F)c1 | 14.8 | 0.58 µM [falling, single point] | –
44 | O=C(c1cccc(S(=O)(=O)N2CCOCC2)c1)N1CCN(S(=O)(=O)c2cccs2)CC1 | – | – | 0.116 µM [rising, full curve, poor fit]
45 | COc1ccc(NC(=S)N(CCN(C)C)C(C)c2ccco2)cc1 (stereo not given) | 7.89 | 16.4 µM [rising, partial curve, poor fit] | –
46 | Cc1c(C(=O)Nc2ccc(Oc3ccccc3)cc2)sc2nc3n(c(=O)c12)CCC3 | -23.5 | 0.184 µM [falling, full curve, poor fit] | –
47 | CC1CCc2c(sc3nc(CSc4nnnn4C)[nH]c(=O)c23)C1 (stereo not given) | -0.132 | – | 0.517 µM [falling, partial curve, poor fit]
48 | CCCCc1nc2cc(C(=O)NC(C)c3cnn(C)c3)ccc2o1 (stereo not given) | 36 | – | 11.6 µM [rising, partial curve]
49 | COc1ccc(C(=O)OCC(=O)NC(=O)NC2CCCC2)c(O)c1 | 24.8 | 2.31 µM [falling, single point] | –
50 | Cc1ccc(C)c(NCCC#N)c1 | – | 1.16 µM [falling, full curve, poor fit] | –
51 | CCN(CC)CCCC(C)NC(=O)c1cccc(S(=O)(=O)N2CCc3ccccc32)c1 (stereo not given) | 32.7 | – | –
52 | CCOC(=O)N1CCC2(CC1)C(C#N)=C(N)Oc1c2c(C)nn1-c1cccc(Cl)c1 | 0.202 | – | –
53 | Cc1cc2ncn(-c3nnnn3-c3ccccc3)c2cc1C | 39 | 6.51 µM [rising, partial curve] | 2.06 µM [rising, partial curve]
54 | Cc1sc2ncnc(SCC(=O)N3CCCC3)c2c1C | 135 | 29.1 µM [rising, partial curve] | 29.1 µM [rising, single point]
55 | CCOC(=O)c1ccc(NC(=O)CNS(=O)(=O)c2ccccc2)cc1 | -33.5 | – | 7.31 µM [falling, partial curve, poor fit]
56 | COc1ccc(/C=N/OCc2ccccc2C#N)c(OC)c1 | – | 1.3 µM [rising, full curve] | 0.58 µM [rising, partial curve, poor fit]
